Reference: the supplement of paper PMC10849652
Some of the results follow.

The chains behind the UniProt entries cited, without tags or fusion partners. Where a name states a change or a piece, a line headed by the entry shows the natural chain unless it says otherwise.
UniProt O43913: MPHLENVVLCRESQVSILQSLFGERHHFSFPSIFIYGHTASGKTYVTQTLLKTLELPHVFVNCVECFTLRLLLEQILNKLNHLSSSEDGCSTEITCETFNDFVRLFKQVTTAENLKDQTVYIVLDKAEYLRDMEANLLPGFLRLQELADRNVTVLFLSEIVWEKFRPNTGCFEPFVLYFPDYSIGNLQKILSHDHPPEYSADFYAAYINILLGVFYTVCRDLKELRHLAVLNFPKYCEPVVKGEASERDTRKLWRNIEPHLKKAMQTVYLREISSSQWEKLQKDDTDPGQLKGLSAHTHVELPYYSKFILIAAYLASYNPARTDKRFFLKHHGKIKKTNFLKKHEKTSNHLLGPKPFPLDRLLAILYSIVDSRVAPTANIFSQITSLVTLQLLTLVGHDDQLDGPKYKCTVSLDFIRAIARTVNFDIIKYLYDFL
UniProt Q6ZVK8: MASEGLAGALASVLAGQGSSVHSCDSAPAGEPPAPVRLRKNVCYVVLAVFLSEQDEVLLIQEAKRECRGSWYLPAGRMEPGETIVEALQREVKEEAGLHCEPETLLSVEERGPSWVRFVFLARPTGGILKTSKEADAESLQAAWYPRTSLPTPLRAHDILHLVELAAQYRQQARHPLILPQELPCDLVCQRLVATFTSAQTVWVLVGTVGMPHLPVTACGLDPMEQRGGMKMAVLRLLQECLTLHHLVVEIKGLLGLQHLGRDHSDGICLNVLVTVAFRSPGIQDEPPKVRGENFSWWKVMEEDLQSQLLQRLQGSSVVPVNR
UniProt Q9UBD5: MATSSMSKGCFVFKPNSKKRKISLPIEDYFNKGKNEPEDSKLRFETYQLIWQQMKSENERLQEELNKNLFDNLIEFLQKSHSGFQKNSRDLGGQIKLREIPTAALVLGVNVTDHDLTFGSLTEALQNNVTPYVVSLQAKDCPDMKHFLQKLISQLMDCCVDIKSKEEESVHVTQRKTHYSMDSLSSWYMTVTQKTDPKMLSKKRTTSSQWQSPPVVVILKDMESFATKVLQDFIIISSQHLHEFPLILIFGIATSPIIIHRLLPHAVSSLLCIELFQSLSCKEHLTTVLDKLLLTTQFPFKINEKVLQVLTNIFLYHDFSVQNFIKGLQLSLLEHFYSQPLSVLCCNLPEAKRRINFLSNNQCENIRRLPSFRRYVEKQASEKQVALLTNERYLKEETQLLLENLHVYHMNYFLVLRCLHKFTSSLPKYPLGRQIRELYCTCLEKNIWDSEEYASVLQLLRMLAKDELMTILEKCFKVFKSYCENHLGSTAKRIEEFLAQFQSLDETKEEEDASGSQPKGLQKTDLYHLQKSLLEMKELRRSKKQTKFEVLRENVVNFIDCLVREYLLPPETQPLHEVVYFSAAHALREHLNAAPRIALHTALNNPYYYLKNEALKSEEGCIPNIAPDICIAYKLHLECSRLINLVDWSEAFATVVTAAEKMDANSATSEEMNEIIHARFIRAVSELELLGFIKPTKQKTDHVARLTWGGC
UniProt Q86UD1: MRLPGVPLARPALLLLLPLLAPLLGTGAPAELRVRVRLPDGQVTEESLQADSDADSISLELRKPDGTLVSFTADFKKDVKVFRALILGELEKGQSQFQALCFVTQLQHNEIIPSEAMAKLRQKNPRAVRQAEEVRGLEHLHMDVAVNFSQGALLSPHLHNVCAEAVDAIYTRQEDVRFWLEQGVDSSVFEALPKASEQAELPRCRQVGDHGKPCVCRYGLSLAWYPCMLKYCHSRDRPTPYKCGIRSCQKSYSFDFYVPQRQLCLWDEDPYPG
UniProt Q9BZF3: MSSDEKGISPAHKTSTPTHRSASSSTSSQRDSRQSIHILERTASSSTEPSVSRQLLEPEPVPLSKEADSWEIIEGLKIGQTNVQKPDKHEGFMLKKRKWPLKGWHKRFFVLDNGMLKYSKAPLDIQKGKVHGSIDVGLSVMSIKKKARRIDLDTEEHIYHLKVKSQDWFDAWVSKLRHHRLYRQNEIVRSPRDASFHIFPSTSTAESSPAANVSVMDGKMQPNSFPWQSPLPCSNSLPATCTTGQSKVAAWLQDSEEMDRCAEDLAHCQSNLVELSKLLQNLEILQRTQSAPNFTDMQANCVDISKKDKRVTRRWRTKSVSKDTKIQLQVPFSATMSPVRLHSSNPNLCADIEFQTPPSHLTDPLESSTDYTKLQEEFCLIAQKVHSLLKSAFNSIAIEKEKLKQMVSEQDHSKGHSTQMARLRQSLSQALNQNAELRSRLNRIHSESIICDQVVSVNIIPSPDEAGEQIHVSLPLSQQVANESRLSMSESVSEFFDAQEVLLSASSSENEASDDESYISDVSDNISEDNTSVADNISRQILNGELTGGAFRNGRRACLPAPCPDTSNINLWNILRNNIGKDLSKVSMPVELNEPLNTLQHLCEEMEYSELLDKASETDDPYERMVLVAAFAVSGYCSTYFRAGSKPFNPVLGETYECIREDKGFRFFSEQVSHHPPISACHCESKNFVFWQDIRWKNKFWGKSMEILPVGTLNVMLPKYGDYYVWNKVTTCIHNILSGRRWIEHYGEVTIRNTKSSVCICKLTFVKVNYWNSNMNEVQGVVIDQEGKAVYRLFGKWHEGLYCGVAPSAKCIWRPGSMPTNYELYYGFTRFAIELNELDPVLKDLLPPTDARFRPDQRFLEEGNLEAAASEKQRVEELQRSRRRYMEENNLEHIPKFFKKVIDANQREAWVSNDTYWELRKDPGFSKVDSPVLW
UniProt Q6PK18: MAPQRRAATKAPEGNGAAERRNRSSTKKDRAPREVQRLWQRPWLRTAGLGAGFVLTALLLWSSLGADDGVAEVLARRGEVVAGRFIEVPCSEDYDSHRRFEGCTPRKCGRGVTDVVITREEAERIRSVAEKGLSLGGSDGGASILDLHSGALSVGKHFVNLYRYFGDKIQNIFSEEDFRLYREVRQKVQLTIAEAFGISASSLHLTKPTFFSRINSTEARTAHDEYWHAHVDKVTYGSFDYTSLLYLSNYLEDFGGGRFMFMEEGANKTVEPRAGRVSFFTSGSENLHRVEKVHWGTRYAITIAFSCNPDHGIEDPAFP
UniProt P0C024: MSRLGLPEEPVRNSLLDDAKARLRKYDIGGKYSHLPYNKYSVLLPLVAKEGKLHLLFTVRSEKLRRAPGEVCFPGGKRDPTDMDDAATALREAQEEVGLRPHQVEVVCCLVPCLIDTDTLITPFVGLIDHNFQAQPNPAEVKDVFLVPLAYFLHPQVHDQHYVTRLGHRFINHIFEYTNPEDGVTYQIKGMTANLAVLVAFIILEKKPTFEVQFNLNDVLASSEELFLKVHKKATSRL
UniProt Q9H8K7: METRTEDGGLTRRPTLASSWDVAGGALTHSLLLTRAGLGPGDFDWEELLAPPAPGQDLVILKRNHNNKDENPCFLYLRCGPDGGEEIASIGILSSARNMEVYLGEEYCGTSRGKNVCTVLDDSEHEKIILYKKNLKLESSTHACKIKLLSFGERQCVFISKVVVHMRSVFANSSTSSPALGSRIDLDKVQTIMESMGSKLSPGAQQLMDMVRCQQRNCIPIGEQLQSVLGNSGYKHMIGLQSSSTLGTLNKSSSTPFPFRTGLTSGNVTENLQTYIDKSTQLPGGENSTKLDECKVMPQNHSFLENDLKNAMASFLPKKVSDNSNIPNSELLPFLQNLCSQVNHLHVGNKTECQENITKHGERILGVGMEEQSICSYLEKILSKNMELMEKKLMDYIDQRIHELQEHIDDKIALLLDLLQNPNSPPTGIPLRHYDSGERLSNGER
UniProt Q9Y5N6: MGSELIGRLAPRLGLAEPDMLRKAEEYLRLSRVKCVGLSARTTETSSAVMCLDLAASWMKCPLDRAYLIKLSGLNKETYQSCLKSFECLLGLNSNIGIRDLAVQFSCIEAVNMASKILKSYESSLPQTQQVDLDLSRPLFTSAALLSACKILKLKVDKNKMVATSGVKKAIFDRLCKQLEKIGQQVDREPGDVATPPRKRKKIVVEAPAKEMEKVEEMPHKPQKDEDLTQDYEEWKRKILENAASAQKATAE
UniProt Q9H4L5: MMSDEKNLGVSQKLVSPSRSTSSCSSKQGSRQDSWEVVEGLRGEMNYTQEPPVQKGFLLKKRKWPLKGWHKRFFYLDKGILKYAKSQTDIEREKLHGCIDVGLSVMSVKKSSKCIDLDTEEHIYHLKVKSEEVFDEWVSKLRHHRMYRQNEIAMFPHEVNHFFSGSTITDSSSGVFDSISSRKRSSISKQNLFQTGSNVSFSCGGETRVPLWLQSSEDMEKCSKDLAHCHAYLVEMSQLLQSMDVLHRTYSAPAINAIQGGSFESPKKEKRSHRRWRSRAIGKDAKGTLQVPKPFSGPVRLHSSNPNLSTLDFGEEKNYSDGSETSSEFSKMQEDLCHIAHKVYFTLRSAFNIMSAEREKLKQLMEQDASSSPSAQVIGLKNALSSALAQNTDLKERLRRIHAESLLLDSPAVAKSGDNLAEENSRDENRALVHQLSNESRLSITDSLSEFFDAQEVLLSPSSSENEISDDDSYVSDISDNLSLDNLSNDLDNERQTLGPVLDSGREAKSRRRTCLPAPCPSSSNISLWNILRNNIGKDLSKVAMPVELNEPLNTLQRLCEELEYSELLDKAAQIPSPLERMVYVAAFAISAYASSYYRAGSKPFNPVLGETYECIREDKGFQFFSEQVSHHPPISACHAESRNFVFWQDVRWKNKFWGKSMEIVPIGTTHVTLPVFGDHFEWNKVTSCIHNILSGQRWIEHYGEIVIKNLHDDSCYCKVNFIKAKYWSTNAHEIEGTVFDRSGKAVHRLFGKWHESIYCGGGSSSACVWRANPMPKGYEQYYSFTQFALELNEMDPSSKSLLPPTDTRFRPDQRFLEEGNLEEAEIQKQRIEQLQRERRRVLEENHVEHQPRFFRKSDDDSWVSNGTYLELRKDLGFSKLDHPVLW
UniProt Q9UBU9: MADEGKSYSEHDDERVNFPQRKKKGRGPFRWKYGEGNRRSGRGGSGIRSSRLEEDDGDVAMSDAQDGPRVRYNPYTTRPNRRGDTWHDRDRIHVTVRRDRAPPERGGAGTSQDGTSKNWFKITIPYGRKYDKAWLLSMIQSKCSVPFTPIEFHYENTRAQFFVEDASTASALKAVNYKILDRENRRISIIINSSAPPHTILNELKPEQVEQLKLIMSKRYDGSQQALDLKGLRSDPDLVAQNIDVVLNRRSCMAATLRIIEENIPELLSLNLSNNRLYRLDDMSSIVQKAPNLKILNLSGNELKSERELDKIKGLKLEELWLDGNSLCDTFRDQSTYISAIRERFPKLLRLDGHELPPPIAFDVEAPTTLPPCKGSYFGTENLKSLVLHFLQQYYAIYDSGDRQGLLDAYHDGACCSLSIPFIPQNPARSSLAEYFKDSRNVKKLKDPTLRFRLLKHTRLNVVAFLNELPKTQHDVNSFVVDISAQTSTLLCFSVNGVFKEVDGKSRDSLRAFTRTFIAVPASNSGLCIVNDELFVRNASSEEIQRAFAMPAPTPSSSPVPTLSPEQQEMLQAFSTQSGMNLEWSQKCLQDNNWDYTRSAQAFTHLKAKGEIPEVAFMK
UniProt Q8WZ82: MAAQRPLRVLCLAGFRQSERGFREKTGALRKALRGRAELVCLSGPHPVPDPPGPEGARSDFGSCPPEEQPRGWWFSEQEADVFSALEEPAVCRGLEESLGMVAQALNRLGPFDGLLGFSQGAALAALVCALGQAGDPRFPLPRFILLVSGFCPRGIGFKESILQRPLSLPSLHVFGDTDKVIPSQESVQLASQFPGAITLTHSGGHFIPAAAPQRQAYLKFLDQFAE
UniProt Q8WV74: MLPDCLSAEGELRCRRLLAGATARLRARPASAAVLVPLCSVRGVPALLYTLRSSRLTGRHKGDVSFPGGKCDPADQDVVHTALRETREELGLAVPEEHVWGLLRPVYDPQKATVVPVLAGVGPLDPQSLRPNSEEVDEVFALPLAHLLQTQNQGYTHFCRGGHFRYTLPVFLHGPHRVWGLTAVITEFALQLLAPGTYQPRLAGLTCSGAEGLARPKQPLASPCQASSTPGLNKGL
UniProt Q9BZD4: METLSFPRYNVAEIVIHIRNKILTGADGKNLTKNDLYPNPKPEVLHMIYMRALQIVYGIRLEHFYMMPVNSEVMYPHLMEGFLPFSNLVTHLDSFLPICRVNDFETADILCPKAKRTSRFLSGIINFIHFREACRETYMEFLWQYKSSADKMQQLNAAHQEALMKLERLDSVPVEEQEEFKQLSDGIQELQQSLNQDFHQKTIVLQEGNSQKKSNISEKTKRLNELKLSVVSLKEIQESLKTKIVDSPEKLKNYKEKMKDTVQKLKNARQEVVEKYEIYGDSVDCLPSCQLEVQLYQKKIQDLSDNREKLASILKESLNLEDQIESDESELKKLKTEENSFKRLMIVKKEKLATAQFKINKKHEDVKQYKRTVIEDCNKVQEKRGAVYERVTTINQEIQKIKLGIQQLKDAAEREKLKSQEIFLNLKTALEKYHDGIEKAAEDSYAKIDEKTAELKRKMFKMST
UniProt Q9H6K4: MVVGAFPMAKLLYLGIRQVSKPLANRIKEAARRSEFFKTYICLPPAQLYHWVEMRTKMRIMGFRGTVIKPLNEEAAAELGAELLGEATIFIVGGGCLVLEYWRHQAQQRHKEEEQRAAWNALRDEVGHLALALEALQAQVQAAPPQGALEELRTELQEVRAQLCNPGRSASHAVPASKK

Tests used:
Assay in all cases: log2 fold change, soluble protein after heating vs DMSO (PISA); higher = thermal stabilisation; K562 cells, 10 uM, 30 min; active = over 0.2 and 3.5 SD of the protein, either way, in both replicates (recomputed)
[1] = compound: C/C(=N\NC(=O)C1=CC(=CC=C1)S(=O)(=O)N2CCOCC2)/C3=C(C=CC(=C3)Cl)O
Method in brief: (§1)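 K562 cells at 2×10^6 cells/mL were treated for 30 min with 10 μM compound, and aliquots were heated for 3 min over 48°C-58°C before pooling. Extraction used PBS with 0.5% NP-40 at 4°C, and soluble protein was the supernatant after 21,000xg for 90 min, measured by TMTpro 16plex LC-MS/MS with channel sums equalised. Thermal stability values, relative to control samples and from duplicates, are log2 fold changes.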

[2] = compound: C1=CC(=C(C=C1Cl)C2=NC3=NC=CN=C3C(=N2)NC4=CC=NC=C4)F
Method in brief: as §1

[3] = compound: C1=CC2=C(C=CC(=C2)/C=C\3/C(=O)NC(=NCC4=CC=CS4)S3)N=C1
Method in brief: as §1

[4] = compound: C1=CC=C(C=C1)C2=NC(=C(N2)C3=CC=NC=C3)C4=CC(=C(C=C4)Cl)O
Method in brief: as §1

[5] = compound: C1=CC=C2C(=C1)C3=NNC4=CC=CC(=C43)C2=O
Method in brief: as §1

[6] = compound: C1CCN(C1)C(=O)NC2=CC=CC(=C2)NC3=NC=C(C(=N3)NCCC4=CN=CN4)Br
Method in brief: as §1

[7] = compound: C1CN(CCC1(CC2=CC=C(C=C2)Cl)N)C3=NC=NC4=C3C=CN4
Method in brief: as §1

erlotinib = compound: C#Cc1cccc(Nc2ncnc3cc(OCCOC)c(OCCOC)cc23)c1 [erlotinib]
Method in brief: as §1

[8] = compound: C1=CC(=CC=C1C2=NC3=C(N2)C=C(C=C3)C(=O)N)OC4=CC=C(C=C4)Cl
Method in brief: as §1

[9] = compound: C1=CC2=NC=CN=C2C=C1/C=C/3\C(=O)NC(=O)S3
Method in brief: as §1

Measured: log2 fold change

OXR1 isoform 2 (UniProt Q8N573)
inactive: [1] 0.137 | [2] -0.362 | [3] -0.034 | [4] -0.056 | [5] 0.068 | [6] 0.02 | [7] -0.022

ORC5 (UniProt O43913)
inactive: erlotinib 0.089 | [1] 0.177 | [8] 0.046 | [3] 0.05 | [9] 0.062 | [4] 0.031 | [5] 0.01 | [6] -0.13 | [7] -0.026

ODF2L isoform 4 (UniProt Q9ULJ1)
inactive: [9] 0.021

NUDT5 (UniProt C9JYY9)
inactive: erlotinib 0.041 | [1] -0.396 | [2] -0.347 | [8] -0.211 | [3] 0.208 | [9] -0.033 | [5] -0.112 | [6] -0.256 | [7] -0.101

ODC1 (UniProt P11926)
inactive: erlotinib 0.761 | [1] -0.142 | [8] -0.06 | [3] -0.073 | [5] -0.15

NUDT18 (UniProt Q6ZVK8)
inactive: erlotinib -0.021 | [1] 0.045 | [2] 0.103 | [8] -0.016 | [3] 0.019 | [4] 0.036 | [5] 0.015 | [6] -0.069 | [7] 0.052

OBSCN (UniProt A6NGQ3)
inactive: [1] -0.037 | [3] 0.01 | [9] 0.452 | [4] -0.137 | [5] 0.098 | [6] 0.131 | [7] 0.159

P2RY1 (UniProt P47900)
inactive: erlotinib -0.044 | [1] 0 | [2] -0.027 | [8] 0.016 | [3] 0.03 | [5] 0.005

ORC3 (UniProt Q9UBD5)
inactive: [1] 0.097 | [3] -0.104 | [5] 0.105

OAF (UniProt Q86UD1)
inactive: erlotinib -0.115 | [8] 0.05 | [4] -0.174

ODF2 (UniProt Q5BJF6)
inactive: [2] -0.044

OSBPL6 isoform 5 (UniProt Q9BZF3)
inactive: erlotinib 0.693 | [1] 0.817 | [2] -1.35 | [8] 0.503 | [3] 0.058 | [4] 0.308 | [5] 0.313

OGFOD3 (UniProt Q6PK18)
inactive: [9] -0.226 | [4] -0.048

ORAI1 (UniProt Q96D31)
inactive: erlotinib 0.033 | [2] 0.203 | [8] 0.026 | [9] -0.004 | [4] 0.002 | [6] -0.109 | [7] -0.135

OSBPL11 (UniProt Q9BXB4)
inactive: erlotinib -0.106 | [8] -0.122

NUDT7 (UniProt P0C024)
inactive: erlotinib -0.246 | [2] -0.282 | [8] 0.148 | [9] -0.066 | [4] -0.118 | [6] 0.158 | [7] -0.024

PAAT (UniProt Q9H8K7)
inactive: erlotinib 0.072 | [1] -0.136 | [2] 0.003 | [8] -0.06 | [3] -0.114 | [9] 0.146 | [4] 0.019 | [5] -0.099 | [6] -0.119 | [7] -0.062

ORC6 (UniProt Q9Y5N6)
inactive: [2] 0.112 | [4] 0.004

NUP205 (UniProt Q92621)
inactive: erlotinib 0.047 | [1] 0.131 | [2] -0.1 | [8] -0.031 | [3] 0.068 | [9] 0 | [4] 0.016 | [5] -0.146 | [6] -0.063 | [7] -0.017

OSGEPL1 (UniProt Q9H4B0)
inactive: erlotinib 0.038 | [1] -0.217 | [8] 0.067 | [3] 0.136 | [5] 0.37

NUDT22 (UniProt Q9BRQ3)
inactive: [1] -0.033 | [3] -0.033 | [9] -0.154 | [5] 0.22

OSBPL3 (UniProt Q9H4L5)
inactive: [1] 0.15 | [2] -0.147 | [8] 0.165 | [3] 0.094 | [4] 0.255 | [5] 0.16 | [6] -0.021 | [7] -0.078
active: erlotinib 1.67

ORMDL1 (UniProt Q9P0S3)
inactive: erlotinib -0.099 | [2] -0.22 | [8] 0.076 | [6] -0.019 | [7] 0.063

NXF1 (UniProt Q9UBU9)
inactive: [1] 0.169 | [3] 0.079 | [4] -0.043 | [5] -0.035 | [6] 0.086 | [7] 0.048

OVCA2 (UniProt Q8WZ82)
inactive: [1] 0.23 | [3] 0.108 | [9] 0.268 | [4] -0.044 | [5] -0.131

P4HA2 (UniProt O15460)
active: [2] -0.548
inactive: erlotinib -0.075 | [8] 0.034 | [9] -0.025 | [4] -0.02 | [6] -0.016 | [7] -0.035

NUDT8 (UniProt Q8WV74)
inactive: erlotinib 0.086 | [8] -0.162 | [9] -0.022 | [4] 0.074 | [6] -0.16 | [7] -0.053

NUF2 (UniProt Q9BZD4)
inactive: [1] 0.011 | [2] -0.376 | [3] 0.004 | [9] -0.129 | [5] -0.013

PABPC1 (UniProt H0YAR2)
inactive: [4] -0.137

OAS3 (UniProt Q9Y6K5)
inactive: [9] 0.139 | [4] 0.226

OGFOD3 isoform 2 (UniProt Q6PK18)
inactive: erlotinib -0.014 | [1] -0.097 | [2] 0.036 | [8] 0.081 | [3] 0.074 | [9] -0.007 | [5] -0.061 | [6] 0.011 | [7] 0.011

ORMDL3 (UniProt Q8N138)
inactive: erlotinib -0.022 | [8] 0.133

P4HA1 isoform 2 (UniProt P13674)
inactive: [1] -0.115 | [2] -0.069 | [3] 0.061 | [9] -0.035 | [4] -0.104 | [5] -0.112 | [6] 0.024 | [7] -0.052

Retrieved one by one from above (3):
ORMDL3 (UniProt Q8N138)
inactive: erlotinib -0.022 | [8] 0.133

OGFOD3 isoform 2 (UniProt Q6PK18)
inactive: erlotinib -0.014 | [1] -0.097 | [2] 0.036 | [8] 0.081 | [3] 0.074 | [9] -0.007 | [5] -0.061 | [6] 0.011 | [7] 0.011

NUF2 (UniProt Q9BZD4)
inactive: [1] 0.011 | [2] -0.376 | [3] 0.004 | [9] -0.129 | [5] -0.013

(further entries)

ORC2 (UniProt Q13416)
inactive: erlotinib 0.051 | [2] 0.039 | [8] 0.017 | [9] -0.055 | [4] -0.048 | [6] -0.055 | [7] 0.105

NUDT6 (UniProt P53370)
inactive: erlotinib -0.022 | [2] 0.155 | [8] 0.103 | [4] -0.12 | [6] 0.121 | [7] 0.35

OPA3 isoform 2 (UniProt Q9H6K4)
inactive: erlotinib 0.015 | [1] -0.04 | [8] 0.005 | [3] -0.013 | [4] 0.121 | [5] -0.113

NVL (UniProt O15381)
inactive: [9] -0.124 | [4] -0.028

NSMCE1 (UniProt Q8WV22)
inactive: erlotinib -0.116 | [1] -0.028 | [2] -0.023 | [8] 0.032 | [3] 0.139 | [4] 0.019 | [5] 0.028 | [6] -0.009 | [7] 0.145

NT5C3B (UniProt Q969T7)
inactive: erlotinib 0.04 | [1] -0.029 | [8] 0.019 | [3] 0.084 | [9] -0.042 | [4] 0.049 | [5] -0.002 | [6] 0.033 | [7] -0.064
